Article PMC11540327
These are yes or no findings as the source states them, for the method shown. In cells and extracts the contact can be indirect. These calls come from enrichment with a bait or labelling near it, and not all partners need be listed.

Amino acid sequences for entries named in this document (tags omitted).
UniProt P25655: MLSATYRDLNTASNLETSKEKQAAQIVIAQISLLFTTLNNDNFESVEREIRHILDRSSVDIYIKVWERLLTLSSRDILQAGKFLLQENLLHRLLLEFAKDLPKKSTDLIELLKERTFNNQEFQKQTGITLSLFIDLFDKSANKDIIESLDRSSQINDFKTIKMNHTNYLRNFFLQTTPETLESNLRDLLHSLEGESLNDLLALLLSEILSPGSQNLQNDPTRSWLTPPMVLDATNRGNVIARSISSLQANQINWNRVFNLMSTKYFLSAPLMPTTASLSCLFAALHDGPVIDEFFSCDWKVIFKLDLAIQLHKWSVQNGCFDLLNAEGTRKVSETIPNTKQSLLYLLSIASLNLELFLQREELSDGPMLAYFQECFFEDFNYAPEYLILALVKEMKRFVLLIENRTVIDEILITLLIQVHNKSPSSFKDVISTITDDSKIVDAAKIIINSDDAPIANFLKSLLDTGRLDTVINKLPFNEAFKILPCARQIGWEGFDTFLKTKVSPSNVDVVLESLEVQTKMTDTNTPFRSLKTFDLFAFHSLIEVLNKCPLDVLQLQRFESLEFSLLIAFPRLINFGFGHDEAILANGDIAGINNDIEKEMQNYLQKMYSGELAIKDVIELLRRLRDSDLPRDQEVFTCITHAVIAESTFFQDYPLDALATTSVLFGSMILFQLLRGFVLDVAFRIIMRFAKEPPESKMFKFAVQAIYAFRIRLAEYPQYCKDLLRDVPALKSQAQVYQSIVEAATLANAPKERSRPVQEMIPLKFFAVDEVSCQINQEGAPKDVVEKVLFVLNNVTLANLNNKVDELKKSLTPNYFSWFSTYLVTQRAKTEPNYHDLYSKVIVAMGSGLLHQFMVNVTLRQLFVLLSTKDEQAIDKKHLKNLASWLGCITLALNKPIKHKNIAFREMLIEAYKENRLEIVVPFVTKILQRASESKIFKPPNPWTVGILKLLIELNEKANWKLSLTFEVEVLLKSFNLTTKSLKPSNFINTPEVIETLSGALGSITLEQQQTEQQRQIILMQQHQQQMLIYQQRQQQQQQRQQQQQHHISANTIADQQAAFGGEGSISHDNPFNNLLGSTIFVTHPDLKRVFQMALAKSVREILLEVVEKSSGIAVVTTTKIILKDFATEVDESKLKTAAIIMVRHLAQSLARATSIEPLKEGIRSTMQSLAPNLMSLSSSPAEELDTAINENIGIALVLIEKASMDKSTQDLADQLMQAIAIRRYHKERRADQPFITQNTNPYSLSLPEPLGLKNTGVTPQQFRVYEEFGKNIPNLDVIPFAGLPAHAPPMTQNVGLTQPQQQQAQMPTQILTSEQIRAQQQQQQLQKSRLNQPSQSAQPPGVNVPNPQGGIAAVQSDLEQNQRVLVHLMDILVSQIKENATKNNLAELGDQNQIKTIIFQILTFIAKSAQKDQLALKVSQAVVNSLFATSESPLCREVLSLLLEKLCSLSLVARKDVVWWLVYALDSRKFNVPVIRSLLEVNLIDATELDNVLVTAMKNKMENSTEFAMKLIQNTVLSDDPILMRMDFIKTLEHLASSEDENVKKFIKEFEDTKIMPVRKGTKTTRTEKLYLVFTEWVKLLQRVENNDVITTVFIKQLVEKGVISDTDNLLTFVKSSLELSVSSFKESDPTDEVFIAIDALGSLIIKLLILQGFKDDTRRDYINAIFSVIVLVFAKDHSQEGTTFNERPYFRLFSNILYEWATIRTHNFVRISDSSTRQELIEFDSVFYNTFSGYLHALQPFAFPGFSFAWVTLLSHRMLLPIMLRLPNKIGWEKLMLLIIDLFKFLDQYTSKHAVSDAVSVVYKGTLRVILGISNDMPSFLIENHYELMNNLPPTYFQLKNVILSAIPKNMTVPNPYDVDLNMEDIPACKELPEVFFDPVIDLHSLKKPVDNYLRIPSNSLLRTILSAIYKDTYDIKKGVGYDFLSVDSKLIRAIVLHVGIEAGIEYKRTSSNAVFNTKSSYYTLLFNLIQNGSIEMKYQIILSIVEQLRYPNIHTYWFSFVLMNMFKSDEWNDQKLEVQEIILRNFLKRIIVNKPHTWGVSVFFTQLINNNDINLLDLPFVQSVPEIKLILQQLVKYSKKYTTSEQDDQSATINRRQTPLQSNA

How the values were obtained:
Experiment in all cases: proximity labelling; TurboID fused to the bait at its chromosomal locus; cells in synthetic media with 1 μM biotin for 2 hr; biotinylated proteins captured on streptavidin magnetic beads under stringent washes, TMT mass spectrometry; enrichment >1.5-fold and P < 0.05 over free TID expressed from the HIS3 promoter; triplicate (Not4) or duplicate (other baits)
Caf1-TID (S. cerevisiae) = biological target: T1, Caf1-TID (S. cerevisiae) (UniProt P39008)
T1 sequence: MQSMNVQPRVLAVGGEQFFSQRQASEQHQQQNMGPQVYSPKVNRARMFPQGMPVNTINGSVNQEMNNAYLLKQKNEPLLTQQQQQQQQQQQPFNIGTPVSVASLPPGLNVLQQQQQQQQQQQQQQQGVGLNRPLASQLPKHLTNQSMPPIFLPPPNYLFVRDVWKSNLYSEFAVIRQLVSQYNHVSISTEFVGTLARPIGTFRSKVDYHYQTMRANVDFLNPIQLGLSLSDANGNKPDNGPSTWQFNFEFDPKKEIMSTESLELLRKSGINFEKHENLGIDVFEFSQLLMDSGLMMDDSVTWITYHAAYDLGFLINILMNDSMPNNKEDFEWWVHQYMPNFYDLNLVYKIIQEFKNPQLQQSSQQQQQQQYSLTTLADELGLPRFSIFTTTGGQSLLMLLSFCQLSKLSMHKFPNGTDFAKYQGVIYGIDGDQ

[1] = biological target: T2, Not4-TID-3HA (S. cerevisiae) (UniProt P34909)
T2 sequence: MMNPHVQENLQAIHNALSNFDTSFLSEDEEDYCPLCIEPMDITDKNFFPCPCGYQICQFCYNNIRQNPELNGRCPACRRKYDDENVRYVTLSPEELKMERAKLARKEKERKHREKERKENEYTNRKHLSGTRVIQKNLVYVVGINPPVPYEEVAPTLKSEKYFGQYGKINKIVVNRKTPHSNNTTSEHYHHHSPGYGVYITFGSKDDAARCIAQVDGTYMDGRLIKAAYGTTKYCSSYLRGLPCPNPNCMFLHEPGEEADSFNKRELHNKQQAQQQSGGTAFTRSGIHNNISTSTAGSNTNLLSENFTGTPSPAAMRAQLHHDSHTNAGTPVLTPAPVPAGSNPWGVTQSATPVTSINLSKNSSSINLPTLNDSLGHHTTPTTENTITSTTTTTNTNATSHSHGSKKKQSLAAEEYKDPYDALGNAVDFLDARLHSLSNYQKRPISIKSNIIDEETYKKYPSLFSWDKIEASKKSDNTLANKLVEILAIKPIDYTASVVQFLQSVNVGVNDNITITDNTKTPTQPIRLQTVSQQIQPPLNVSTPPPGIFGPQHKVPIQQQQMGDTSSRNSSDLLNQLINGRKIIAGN

Dhh1-TID (S. cerevisiae) = biological target: T3, Dhh1-TID (S. cerevisiae) (UniProt P39517)
T3 sequence: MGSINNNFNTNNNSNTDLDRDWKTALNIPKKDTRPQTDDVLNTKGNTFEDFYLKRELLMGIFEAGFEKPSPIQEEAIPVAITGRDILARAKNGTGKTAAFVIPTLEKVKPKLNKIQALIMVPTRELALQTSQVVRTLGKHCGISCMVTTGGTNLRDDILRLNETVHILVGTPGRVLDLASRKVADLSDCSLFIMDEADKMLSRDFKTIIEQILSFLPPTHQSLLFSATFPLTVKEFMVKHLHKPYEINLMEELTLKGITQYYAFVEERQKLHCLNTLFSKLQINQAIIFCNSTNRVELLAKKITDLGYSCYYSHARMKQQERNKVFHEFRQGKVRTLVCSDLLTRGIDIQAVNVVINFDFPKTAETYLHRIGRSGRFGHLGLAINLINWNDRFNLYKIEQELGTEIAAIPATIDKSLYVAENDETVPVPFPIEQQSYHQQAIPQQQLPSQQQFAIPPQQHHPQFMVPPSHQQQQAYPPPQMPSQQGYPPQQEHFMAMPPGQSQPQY

Not1-TID (S. cerevisiae) = Not1-TID (S. cerevisiae) (UniProt P25655)

Measured: binding

B1: Def1 (protein, UniProt P35732 1-738)
chain: MSTQFRKSNHNSHSSKKLNPALKSKIDTLTELFPDWTSDDLIDIVQEYDDLETIIDKITSGAVTRWDEVKKPAKKEKYEKKEQQHSYVPQQHLPNPEDDITYKSSNNSNSFTSTKHNSSNNYTQARNKKKVQTPRAHTTGKHVNLDKGKHVPSKPVSNTTSWAAAVSVDTKHDVPQDSNDNNNEELEAQGQQAQEKNQEKEQEEQQQQEGHNNKEEHKQIEQPSLSSKKTTSRTSASQPKKMSWAAIATPKPKAVKKTESPLENVAELKKEISDIKKDDQKSEASEEKVNEQETSAQEQEEETAEPSEENEDRVPEVDGEEVQEEAEKKEQVKEEEQTAEELEQEQDNVAAPEEEVTVVEEKVEISAVISEPPEDQANTVPQPQQQSQQPQQPQQPQQPQQPQQPQQQQQPQQPQQPQQQLQQQQQQQQQPVQAQAQAQEEQLSQNYYTQQQQQQYAQQQHQLQQQYLSQQQQYAQQQQQHPQPQSQQPQSQQSPQSQKQGNNVAAQQYYMYQNQFPGYSYPGMFDSQGYAYGQQYQQLAQNNAQTSGNANQYNFQQGYGQAGANTAAANLTSAAAAAAASPATAHAQPQQQQPYGGSFMPYYAHFYQQSFPYGQPQYGVAGQYPYQLPKNNYNYYQTQNGQEQQSPNQGVAQHSEDSQQKQSQQQQQQQPQGQPQPEVQMQNGQPVNPQQQMQFQQYYQFQQQQQQAAAAAAAAAQQGVPYGYNGYDYNSKNSRGFY
binds: all assays above
